Laboratory results reported in patent publication US20260207514A1, “Clofazimine Mini-Tablets for Treatment of Tuberculosis in Pediatrics” (Via Therapeutics, LLC, priority 2022, published 2026).
At least one read-out could not be matched to a standard name with certainty.

Experiment: Stress testing of micronized CFZ with excipient blends (compatibility, HPLC assay and related substances)
Format: physicochemical
Experimental: Clofazimine degradation was assessed using the high pressure liquid chromatography (HPLC) method published in the United States Pharmacopeia monograph for the drug (U.S.P., 2021) The mobile phase consisted of a 65:35 mixture of acetonitrile and an aqueous buffer consisting of 4.5 g/L sodium dodecyl sulfate, 1.7 g/L tetrabutylammonium hydrogen sulfate and 21.8 g/L Na2HPO4 adjusted to pH 3.0. Flow rate was 1.0 mL/min and infection volume was 20 μL. A LiChromspher® RP-8 100 column (250×4.6, 5 μm) (Millipore Sigma) was used. Measurements were performed using an Agilent 1100 HPLC with diode array detector set at 280 nm. […] Hydrophobic PTFE 0.22 μm filters were used for sample filtration prior to analysis.
Stress testing of micronized CFZ in combination with commercially available tableting excipient blends was performed to establish potential mechanisms of drug degradation and streamline excipient selection for mini-tablet preparation. Two different blends were assessed: Prosolv® EasyTab SP (JRS Pharma) and Ludipress® (BASF).
Additionally, Eudragit® E PO was assessed, as a potential candidate for functional coating of the mini-tablets to prevent CFZ release in the saliva and subsequent staining of the mouth. Binary mixtures of micronized CFZ and excipient blends and micronized CFZ and Eudragit E PO were prepared at 1:1 weight ratios. Blends of CFZ with Prosolv EasyTab SP, Ludipress, or Eudragit E PO were left open or in closed HPDE vials and stored for 18 days at 70° C./20% relative humidity (RH) or 70° C./75% RH, which was the thermal equivalent of 6 months of storage. […]
HPLC analysis was performed on day 0 for CFZ alone and CFZ with each excipient, as well as on day 18 for the same samples at each temperature and humidity condition. Assay values (% recovery) for all samples was determined by comparing peak area to a reference standard and correcting for sample water content measured by Karl Fischer titration method, and related substances were reported by relative retention time (RRT) to the reference CFZ peak.

With `CC(C)/N=c1\cc2n(-c3ccc(Cl)cc3)c3ccccc3nc-2cc1Nc1ccc(Cl)cc1` [CFZ, clofazimine] the “Assay % Recovery” value (70 C./20% RH, Open, 18 days) was 101.32%, the “Assay % Recovery” value (70 C./75% RH, Open, 18 days) was 100.29% and the “Assay % Recovery” value (Initial (day 0)) was 95.61%.
